Measurements reported in PMC12381239.
No constants are given. Whether binding was seen depends on the method and setting. Binding seen in cells or lysates may run through a third protein. Some entries that bind do so weakly or less than the wild type.

Chains of the proteins cited; added tags and fusions are not shown.
UniProt Q13283: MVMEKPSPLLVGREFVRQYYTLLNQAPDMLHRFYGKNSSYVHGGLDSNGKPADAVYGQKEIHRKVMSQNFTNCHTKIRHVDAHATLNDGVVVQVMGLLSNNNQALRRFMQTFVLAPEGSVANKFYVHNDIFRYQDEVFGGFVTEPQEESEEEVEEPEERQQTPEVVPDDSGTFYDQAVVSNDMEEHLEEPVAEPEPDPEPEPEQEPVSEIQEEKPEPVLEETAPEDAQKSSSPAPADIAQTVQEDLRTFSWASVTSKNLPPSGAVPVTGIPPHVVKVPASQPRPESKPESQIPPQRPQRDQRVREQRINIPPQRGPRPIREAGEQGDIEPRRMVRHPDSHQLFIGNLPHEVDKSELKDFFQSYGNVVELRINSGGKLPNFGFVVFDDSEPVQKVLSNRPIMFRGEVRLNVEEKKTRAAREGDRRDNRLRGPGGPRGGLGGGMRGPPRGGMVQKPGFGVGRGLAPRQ

Target: T1, Pro-AEP (human) (UniProt Q99538)
T1 sequence: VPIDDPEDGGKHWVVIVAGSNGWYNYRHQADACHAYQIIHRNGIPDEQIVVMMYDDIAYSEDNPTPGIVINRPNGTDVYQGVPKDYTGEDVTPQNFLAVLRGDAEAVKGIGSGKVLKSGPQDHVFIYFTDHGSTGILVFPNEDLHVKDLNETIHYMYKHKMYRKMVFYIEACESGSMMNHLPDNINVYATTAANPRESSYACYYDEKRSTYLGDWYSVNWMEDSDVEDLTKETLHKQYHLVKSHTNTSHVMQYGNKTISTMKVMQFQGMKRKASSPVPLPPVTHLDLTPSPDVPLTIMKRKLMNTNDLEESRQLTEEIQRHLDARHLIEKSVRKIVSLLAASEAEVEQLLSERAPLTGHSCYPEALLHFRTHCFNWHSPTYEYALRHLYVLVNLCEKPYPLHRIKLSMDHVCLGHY
Experiment: co-IP; U2OS cells treated with cisplatin

binding: binds
Substance: Ras-GTPase-activating protein (GAP)-binding protein 1 (G3BP1) (from UniProt Q13283 1-466)
